Laboratory results from PubChem BioAssay AID1508600 (Functional Genomics Laboratory (NCATS/FGL), 2020).
About 3,700 (7%) of roughly 53,000 sequences were called active.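 How the source made its calls: active means gene knockdowns whose robust z-score for IL-1 alpha signal is at least 2 or at most -2, so actives lie on both sides; inactive means the rest.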 The list shows a part of the results.

Assay: Components of the Cytosolic LPS Sensing Pathway: Gene Identification via Genome-wide siRNA Screen;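 further: robust z of the log signal after scaling to non-targeting control siRNA wells of the plate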
Conditions: RAW264.7 macrophages, IL-1a HTRF, actives lie on both sides, screened at 100 nM (by protocol), cells primed 5 h with Pam3CSK4 first
Method in brief: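 Mouse macrophage line RAW264.7 is transfected with siRNA (100 nM final), grown 48h, primed with TLR ligand Pam3CSK4 5 h and given intracellular LipidA 24 h. IL-1a in supernatant is read by HTRF and viability by luminescence.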

Row | Sequence | z-score
1 | GCCAAUUGGCCUUUGCUAUTT against Olfr1289 | inactive: -0.196
2 | GGCUUUCACACUUGAAGAATT against Cdkn2aipnl | inactive: -0.126
3 | GGAGGUAGAAAAAACACAATT against Ppp2r3c | inactive: 0.817
4 | GGAAGUAGGACUAGCCAUCTT against Akr1c6 | active: 3.37
5 | CCAGGCACUUAAGGAAAUUTT against Bloc1s1 | inactive: -0.801
6 | GGCGGGCAUUUAACAGUGUTT against Dnajc2 | inactive: 0.432
7 | CCAAAGUCUGACACGUUUGTT against Soat2 | inactive: 0.389
8 | CCAACAAGUGAGCUGCAGATT against Olfr724 | inactive: 0.477
9 | CGAAUACGAAAAAAUCGACTT against Thoc7 | inactive: -0.215
10 | CGUGUGUGUCAUGUUACGGTT against Dusp2 | inactive: -0.901
11 | GGUCUUCAAGUCAAUCUUGTT against Chst10 | inactive: 1.16
12 | GGUCUCCAUGGAUUUAUGCTT against Phf7 | inactive: -0.768
13 | GCUUUACUAUGUGAGAAAUTT against Ryk | inactive: -1.89
14 | CCAAAGAUGUUAUUGGACCTT against Olfr1152 | inactive: -1.1
15 | CCAGAGAAGUGGCAGCACUTT against Olfr108 | inactive: -0.773
16 | GGCAUGAAAGGUGUCAUACTT against Zfp119a | inactive: 1.91
17 | CCACUGUUGUGCAAUGCUUTT against Snx25 | inactive: 0.483
18 | CUUCCGAUUUCCAAAUCCUTT against 1700020N01Rik | inactive: 0.96
19 | GGUCUGAUUCACCAUAAUUTT against Sspn | inactive: 0.313
20 | GGGUCUCCGAAACUACUUATT against Tmem144 | inactive: 0.00626
21 | CCCAAAAGCAAACUUGCUGTT against Hp1bp3 | inactive: 0.683
22 | GGAGCUCAAGGAAUAGUGUTT against Mapk8 | inactive: 0.56

Fetched one by one from above, four records:
Row | Sequence | z-score
16 | GGCAUGAAAGGUGUCAUACTT against Zfp119a | inactive: 1.91
4 | GGAAGUAGGACUAGCCAUCTT against Akr1c6 | active: 3.37
19 | GGUCUGAUUCACCAUAAUUTT against Sspn | inactive: 0.313
9 | CGAAUACGAAAAAAUCGACTT against Thoc7 | inactive: -0.215

(continued)

Row | Sequence | z-score
23 | GGGUCUGUUCGAUUCAUUATT against Mdfi | inactive: 0.469
24 | GGUCUACAGCUACCUGAAUTT against Npc2 | inactive: 0.105
25 | GGCUUUCUGUUAAAAAGCUTT against Rab3gap2 | inactive: -0.93
26 | GGACCAUUCUGCUAGAUGCTT against Tnfrsf1a | inactive: -0.488
27 | GGUCAAUUCACUUUGUAAGTT against Meox1 | inactive: 0.0974
28 | GGGAUUGACAGUAUUUAAUTT against Tmem169 | inactive: 0.724
29 | GGUGCUAGAUCCACAGAACTT against Agrp | inactive: -0.993
30 | GCCAAAUCUACUGUUAUUUTT against Fam174a | inactive: 1.06
31 | GAUGGAGAUCAAGAUAUGGTT against Obox5 | inactive: -1.91
32 | GGAAAUGAACUCAUAGCCATT against Olfr121 | inactive: 0.0495
33 | AGAAAUGCCUCUUCAGUGATT against Olfr884 | inactive: 1.59
34 | GGAAUUUGAGGAAUUGACATT against Dck | inactive: -0.454
35 | GGUCUUACCCUGCCAGCAUTT against Sh3rf1 | inactive: 0.72
36 | CCAACUAAUGCCAAAAGAATT against Fnta | inactive: -0.711
37 | GCCCAUGUUUGUGAGGGUUTT against Fem1al | inactive: -0.0893
38 | CCAGUUUUUAGUUGUAGCCTT against Mta3 | inactive: -0.924
39 | GCGUAUGGAAUCAUAAGAATT against Smurf2 | inactive: -0.466
40 | GCGUAAGGAAGUUCUGUGCTT against Ly96 | inactive: 0.0734
41 | GGUGAACAAUAUCUUCAUCTT against Klf5 | inactive: 0.975
42 | GGUUUUAAAGCAAUGAGCATT against Olfr995 | inactive: -1.2
43 | GGCUCAUCUAUCAGAUUUUTT against Clic5 | inactive: 0.114
44 | GGCUAGCUUAUCAAGCAACTT against Alpk3 | inactive: 0.73

Row | Sequence | z-score
45 | GGACAUCAUGAACAAGCAATT against Ghrh | inactive: -1.52
46 | GGAAAAUGUCUGUGAUCAUTT against Tulp3 | inactive: -0.266
47 | GAUCUGUUUGAACAGUAUGTT against Clps | inactive: 1.96
48 | GGCAAGAUGUAUGAUGCUUTT against Slpi | inactive: 1.93
49 | GGCCCUUGAUAACUUUUCCTT against Mmachc | inactive: -0.121
50 | GGGACACGAUGAGGAGUCATT against Cfap410 | active: -2.21
51 | CGACUUGAACAUGGUAAAATT against Eif5b | inactive: 0.307
52 | GGAGACAGAAAAUCAAGGCTT against Taf7 | inactive: -0.506
53 | GGCCUUUUUCUUUCUUUUCTT against Olfr212 | inactive: -0.849
54 | GGCAGCCUGAACAUCAAUGTT against S100a13 | inactive: 1.47
55 | GGUCAUGUUAAAGGAAUCATT against Fam210a | inactive: 1.49
56 | GCAAUGAGGACUUACUUACTT against Echdc2 | inactive: 0.757
57 | GGUCUUUCUGGCAAUUCUCTT against Zscan20 | inactive: -0.606
58 | GGCAAGUGCAAUUUAUAAATT against Nfib | inactive: 0.434
59 | CCACUUUUGUAAUGGAAGCTT against Mfsd6l | inactive: 1.89
60 | GGAAAAGUCCAAUGUGACCTT against Npy4r | inactive: -1.24
61 | GGAAAAGAGUGAGAUUCAGTT against Ino80 | inactive: -1.99
62 | CGCAACCUGUCACAUAAUATT against Bmpr2 | inactive: -0.238
63 | CCACCAAGUGGUUUAUACATT against Atf7ip | inactive: -0.472
64 | GGAAGACUCGGAGUUUCUATT against Ece2 | inactive: 1.73
65 | GGCACUAAUGAACAACUCUTT against Daam1 | inactive: -0.162
66 | CCAGUACAUUGAGCUGGAUTT against Bpifb3 | inactive: 1.82

Row | Sequence | z-score
67 | GGGUAAGAGUUACAGAAUATT against Serpinb8 | inactive: -0.0947
68 | GGAUAAAUUCAAUGAGACATT against Afm | inactive: 0.585
69 | CCUUGUUGCUCUGUCGAUCTT against Grina | inactive: 0.0669
70 | GGUGAACAAGCUGUCCUCATT against Fgl2 | inactive: -0.651
71 | GGACUUAAGUACAAAGAUCTT against Sap18 | inactive: 1.46
72 | CCAUGGAAGUUUGAACUUATT against Cst13 | inactive: 0.733
73 | GCCUCAAGGCAUUGGCAAGTT against Defb28 | inactive: 1.25
74 | GGGCACUUCUGUCUUUGUCTT against P2rx3 | inactive: -1.57
75 | GGAAAUGCCUUCAGAAAUUTT against Slc9a3r1 | inactive: -1.22
76 | GCGAGAUAGGCUUUACUCUTT against Kdr | inactive: -1.49
77 | GGUAUUAGUAUGUAUCUUCTT against Olfr135 | inactive: 0.305
78 | GGAAUGGUUUGAAGAACUUTT against Tlr6 | inactive: 0.559
79 | GCAAAAGCGGGUCAAAAAATT against Lrrc72 | active: 2.27
80 | GGCUUAAUUACACAUGUUCTT against Il6 | inactive: -1.09
81 | GCCAUGGUUAUUAAGCUGGTT against Olfr608 | inactive: -0.64
82 | GGCAAUCCUGUCCAACAAGTT against Hydin | inactive: -1.54
83 | CAACCCUGUAAGGUUGAUUTT against Oog3 | inactive: -0.423
84 | GCCUGCUUAAGCUACUUAUTT against Fam210b | inactive: -1.04
85 | GGCUGCUUAAGUGUAUCAGTT against Cep78 | inactive: -1.16
86 | GGUGGUGUACAACAGAGUUTT against Ust | inactive: 0.222
87 | GGAACCAACCAGGAGAAAUTT against Ms4a4d | active: -2.58
88 | GGCGAACAAUUCCCUCAUUTT against Nos1 | inactive: -0.712

Row | Sequence | z-score
89 | GGUGAAAGUUACGUGUGUGTT against Dclk2 | inactive: -0.4
90 | CGGCUUUCAAUCACAACGGTT against Wdr91 | inactive: 0.889
91 | GGUUGAGAUGUUCCAUAGATT against C5ar2 | inactive: 0.779
92 | GGAAAAUUAGUAACCUCCCTT against Fam189b | inactive: 1.08
93 | GCGUUUCACGUACCUUCCUTT against Nfatc1 | inactive: 1.22
94 | GGACUUCAAAACAGAUCUGTT against H3f3a | inactive: 0.488
95 | GCACUAGCAAUUUUUCUUUTT against Tram1 | inactive: -1.22
96 | GGAUGGGACUUUUGAAAAATT against Cd247 | inactive: 1.77
97 | GCUCAAGUCUACGAGAGUUTT against Ccdc86 | inactive: 0.973
98 | GGUGUUGAGAUCAUUCUGCTT against Olfr1264 | inactive: -0.618
99 | GCUGAACCAAUGUAGAAUATT against Vps37c | inactive: -0.59
100 | GCAUCUCAGGGAUUUAGAUTT against Marchf7 | inactive: 1.65
101 | GGCUCACUCAUUUGUCAGATT against Soat1 | inactive: 0.0924
102 | GGUGAAGAAAGCGGAAAAGTT against Cstf3 | inactive: -0.19
103 | GGUUGAAACUUUUUCUGGUTT against Rps7 | inactive: -0.0138
104 | GGACAACUAGCUUCUUGUATT against Trdmt1 | inactive: -1.09
105 | CGGUCAAGUUUUGAUUCCATT against Prkaa2 | inactive: -0.785
106 | GGACCUUAUUUGAAGCCUATT against Btnl9 | inactive: -0.596
107 | CGGAUGAGGUUUCUUUUAUTT against Phkb | inactive: 0.415

Quoted from the listing:
GCACUAGCAAUUUUUCUUUTT against Tram1 – z-score: inactive: -1.22
GGACCUUAUUUGAAGCCUATT against Btnl9 – z-score: inactive: -0.596
GCGUUUCACGUACCUUCCUTT against Nfatc1 – z-score: inactive: 1.22
